Values from PubChem BioAssay AID1159578 (Peter MacCallum Cancer Centre, 2015)

Assay: 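Genome-wide hunt for genes controlling movement of lymphatic endothelial cells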 (primary screen)
System: human lymphatic endothelial cells
Reagent: siRNA pool against human genes, 40 nM
Time to read-out: 48 h after transfection
Measurement: 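Cells stained with dye and imaged after a scratch; covered wound area and nuclei counted, duplicates averaged, migration set against mock wells and turned into a robust z-score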
Direction: migration robust z-score: higher = faster migration into the scratch; nuclei per well: higher = more cells in the well
Hit rule: 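Migration changed when robust z exceeds 2 or falls below -2 and mean nuclei number is at least 3300; otherwise not called changed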
Meaning of the calls: active = migration changed; inactive = no migration change, or too few cells
In all, the deposit lists about 18,000 reagents; this is a random part of them. Of all reagents, about 1,030 (5.7%) were called active. 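Inactive calls also include pools with fewer than 3300 nuclei, whose migration was not assessed.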 The raw values are shown without normalisation. Further read-outs or replicates are left out here.

| target gene | migration robust z-score | nuclei per well, duplicate mean | activity call |
| --- | --- | --- | --- |
| TMPRSS4 | 0.8 | 5002 | inactive |
| SLCO5A1 | -0.78 | 5264 | inactive |
| CNKSR1 | -2.74 | 4298 | active |
| LINC00303 | -0.2 | 5026 | inactive |
| ARL4C | 0.17 | 5020 | inactive |
| SYT2 | 0.06 | 6354 | inactive |
| TUBA3D | 0.26 | 4855 | inactive |

Next part (2 carried over from the part before).
| target gene | migration robust z-score | nuclei per well, duplicate mean | activity call |
| --- | --- | --- | --- |
| SYT2 | 0.06 | 6354 | inactive |
| TUBA3D | 0.26 | 4855 | inactive |
| AMY1C | 0.38 | 5012 | inactive |
| SLC19A2 | -0.86 | 4344 | inactive |
| HSP90AB1 | -0.36 | 5323 | inactive |
| GPR176 | 0.08 | 5889 | inactive |
| PAGE2 | -0.9 | 4228 | inactive |
| GRAP | 1.77 | 6717 | inactive |
| BCAS1 | 2.11 | 7695 | active |
| LOC653978 (retired record) | 0.6 | 6186 | inactive |
| CPLX1 | 0.13 | 5262 | inactive |
| ALG3 | -0.25 | 6218 | inactive |
| B3GNT4 | -0.36 | 5709 | inactive |
| HDC | 1.06 | 6263 | inactive |
| SRRM2 | 0.22 | 5643 | inactive |
| BEST3 | 0.29 | 5890 | inactive |
| HRCT1 | 0.05 | 5134 | inactive |
| TOMM20 | 1.05 | 6583 | inactive |
